PubChem BioAssay AID1259300 | Sanger Institute | 2017
Test: 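siRNA screen of kinases and common colorectal cancer mutant genes, alone or with drugs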 (primary screen). System: HCT15 colorectal cancer cells. Reagent: siRNA pool against human genes. Treatment: anchor drug or DMSO vehicle added 24 h after seeding: BYL719 1 µM, cetuximab 5 µg/ml, trametinib 10 nM; drug doses chosen to barely affect viability alone. Detection: 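Cell viability after knock-down, as fraction of non-targeting pool wells averaged over replicates, plus robust z-score for knock-down alone; synergy score per drug (BYL719 1 µM, cetuximab 5 µg/ml, trametinib 10 nM)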. Reading the numbers: viability z-score, siRNA alone: higher = more viable cells after knock-down; viability vs non-targeting, siRNA alone: higher = more viable cells; synergy score with BYL719 and synergy score with cetuximab: higher = stronger synergy of knock-down with drug. Call rule: 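a knock-down without drug that drives the robust viability z-score under -3 is active, i.e. essential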. Meaning of the calls: active = essential: knock-down alone lowers viability (z below -3); inactive = no strong viability loss with knock-down alone.
This is an unselected part of 794 reagents. 18 of them (2.3%) count as active. 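Calls rest on knock-down alone, not drug synergy; depositor treated synergy scores above 0.15 as synergistic; drug doses alone had little viability effect.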 Viability is capped at 1. Not all columns of the deposit are shown. Not given: the amount of reagent, the time to read-out.

| target gene | viability z-score, siRNA alone | viability vs non-targeting, siRNA alone | synergy score with BYL719 | synergy score with cetuximab | call |
| --- | --- | --- | --- | --- | --- |
| CSNK1A1L | 0.457 | 0.988 | 0.0897 | 0.102 | inactive |
| PIM3 | 0.625 | 1 | 0.153 | 0 | inactive |
| TTBK2 | 0.625 | 1 | 0.12 | 0.0533 | inactive |
| PAK6 | -0.242 | 0.937 | 0.206 | -0.0434 | inactive |
| FES | 0.625 | 1 | 0.0586 | 0 | inactive |
| PRP4K | -1.63 | 0.836 | 0.0923 | -0.067 | inactive |
| RET | 0.625 | 1 | 0.0969 | 0.0681 | inactive |
| CERT1 | 0.599 | 0.998 | 0.0717 | 0.0415 | inactive |
| MSR1 | 0.344 | 0.98 | 0.162 | 0.161 | inactive |
| NEK2 | 0.625 | 1 | 0.213 | 0.0952 | inactive |
| EPHB3 | -1.27 | 0.862 | 0.0172 | -0.0157 | inactive |
| RTN4 | 0.625 | 1 | 0.133 | 0.037 | inactive |
| STK40 | 0.321 | 0.978 | 0.198 | 0.0364 | inactive |
| NEK3 | 0.511 | 0.992 | 0.0588 | 0.0942 | inactive |
| FGFR4 | 0.625 | 1 | -0.0118 | 0 | inactive |
| EPHA2 | 0.625 | 1 | -0.0308 | 0.136 | inactive |
| TNIK | 0.625 | 1 | 0.24 | 0 | inactive |
| GRK2 | 0.625 | 1 | 0.126 | 0 | inactive |
| PIM2 | 0.625 | 1 | 0.0881 | 0.0148 | inactive |
| ALPK1 | -1.76 | 0.827 | -0.112 | 0.0352 | inactive |
| ADK | -0.445 | 0.922 | 0.0518 | -0.0778 | inactive |
| MAP3K21 | 0.565 | 0.996 | 0.101 | -0.00232 | inactive |
| PIP4K2C | -2.45 | 0.777 | 0.02 | -0.142 | inactive |
| JAK3 | 0.625 | 1 | 0.0656 | 0 | inactive |

Continued, starting with the last 6 of the part before.
| target gene | viability z-score, siRNA alone | viability vs non-targeting, siRNA alone | synergy score with BYL719 | synergy score with cetuximab | call |
| --- | --- | --- | --- | --- | --- |
| PIM2 | 0.625 | 1 | 0.0881 | 0.0148 | inactive |
| ALPK1 | -1.76 | 0.827 | -0.112 | 0.0352 | inactive |
| ADK | -0.445 | 0.922 | 0.0518 | -0.0778 | inactive |
| MAP3K21 | 0.565 | 0.996 | 0.101 | -0.00232 | inactive |
| PIP4K2C | -2.45 | 0.777 | 0.02 | -0.142 | inactive |
| JAK3 | 0.625 | 1 | 0.0656 | 0 | inactive |
| SGK3 | 0.575 | 0.996 | -0.0136 | 0.107 | inactive |
| BRSK1 | 0.192 | 0.969 | 0.124 | 0.0294 | inactive |
| ELP1 | -0.52 | 0.917 | -0.0732 | -0.0833 | inactive |
| NRK | 0.625 | 1 | 0.112 | 0.111 | inactive |
| AMER1 | 0.625 | 1 | 0.0578 | 0 | inactive |
| PIP5K1C | -0.119 | 0.946 | 0.136 | 0.104 | inactive |
| CDKL3 | 0.625 | 1 | 0.0462 | 0 | inactive |
| MAP3K10 | -0.0972 | 0.947 | 0.148 | 0.00158 | inactive |
| DDR1 | 0.625 | 1 | -0.0253 | 0.0226 | inactive |
| MYLK3 | 0.0279 | 0.957 | 0.0805 | 0.00117 | inactive |
| CDK9 | 0.625 | 1 | 0.214 | 0.108 | inactive |
| KSR2 | 0.625 | 1 | 0.126 | 0.132 | inactive |
| FN1 | 0.625 | 1 | 0.223 | 0.115 | inactive |
| NEK8 | -1.95 | 0.813 | 0.213 | -0.00144 | inactive |
| SOX9 | -1.39 | 0.854 | 0.114 | -0.146 | inactive |
| ADCK2 | 0.257 | 0.973 | 0.121 | -0.0267 | inactive |
| CLK1 | -0.387 | 0.926 | 0.0822 | -0.0736 | inactive |
| ATM | -0.164 | 0.943 | 0.177 | 0.0472 | inactive |
| STK17A | 0.625 | 1 | 0.214 | 0.0204 | inactive |
| PRKCH | -2.43 | 0.778 | 0.182 | -0.0932 | inactive |
| RYK | 0.625 | 1 | 0.0394 | 0 | inactive |
| CIT | 0.163 | 0.966 | 0.266 | 0.0981 | inactive |
| PRKCZ | 0.224 | 0.971 | 0.115 | -0.0209 | inactive |
| HK1 | 0.625 | 1 | 0.158 | 0.0177 | inactive |
| CDK19 | -0.758 | 0.899 | 0.0752 | -0.0693 | inactive |
| NEK1 | -0.0258 | 0.953 | 0.0105 | 0.0411 | inactive |
